{
  "source": "PubChem BioAssay AID248",
  "about": "(DTP/NCI, 2004)",
  "system": "L1210 leukemia ip in BDF1 mice, survival T/C",
  "assay": "NCI In Vivo Anticancer Drug Screen. Data for tumor model L1210 Leukemia (intraperitoneal) in B6D2F1 (BDF1) mice",
  "conditions": "T/C endpoint: mean survival time, higher T/C = longer survival",
  "key": {"[1]": {"conditions": "dose: 200.0 mg/kg/injection, schedule: Q01DX001 (ip), vehicle: saline"}, "[2]": {"conditions": "dose: 400.0 mg/kg/injection, schedule: Q01DX001 (ip), vehicle: saline"}, "[3]": {"conditions": "dose: 200.0 mg/kg/injection, schedule: Q04DX003 (ip), vehicle: Klucel (hydroxypropylcellulose) (HPC)"}, "[4]": {"conditions": "dose: 400.0 mg/kg/injection, schedule: Q04DX003 (ip), vehicle: Klucel (hydroxypropylcellulose) (HPC)"}},
  "note": "The list is a part of this screen's results and no random one: it is rich in T/C values a quarter to a half above the control, in often repeated tests (any T/C) and in doses without a T/C. Further doses and runs are listed elsewhere. T/C: endpoint of the treated group in % of that of the vehicle group. Some doses have a count of surviving animals in place of a T/C: the source files T/C as zero there, which appears to mark a toxic dose or a test without result, not a measured value. Some survivor counts are full or nearly so, which does not show that the dose was tolerated: survival well below the control is almost never listed, so the zero probably covers shortened survival too. Counts of survivors are from the toxicity check (mostly the fifth day) where no day follows; animals may have died later. Schedules are NCI's codes, taken here to give the interval after Q, in days (D) or hours (H), and the number of doses after X. Some schedules carry Z or #; the key to these is not given. Some molecules as drawn cover several salts, stereoisomers or complexes of the source; a dose is that of the sample tested. For survival time, this PubChem deposit counts one and a half times the control or more as active, and values a quarter to a half above the control carry no call in these data; other NCI protocols may use other cut-offs.",
  "data": [
    {"smiles": "CC1C(=O)c2cc3c(cc2CCN(C)Cc2c1ccc1c2OCO1)OCO3", "note": "(centres undefined)", "values": [
      {"measurement": "survivor count", "setting": "dose: 38.0 mg/kg/injection, schedule: Q01DX001 (ip), vehicle: other", "result": "1 of 6"},
      {"measurement": "survivor count", "setting": "dose: 75.0 mg/kg/injection, schedule: Q01DX001 (ip), vehicle: other", "result": "0 of 6"},
      {"measurement": "survivor count", "setting": "dose: 80.0 mg/kg/injection, schedule: Q01DX001 (ip), vehicle: saline", "result": "2 of 4"},
      {"measurement": "survivor count", "setting": "dose: 100.0 mg/kg/injection, schedule: Q01DX001 (ip), vehicle: saline", "result": "1 of 4"},
      {"measurement": "survivor count", "setting": "dose: 150.0 mg/kg/injection, schedule: Q01DX001 (ip), vehicle: other", "result": "0 of 6"},
      {"measurement": "survivor count", "setting": "[1]", "result": "0 of 4"},
      {"measurement": "survivor count", "setting": "dose: 300.0 mg/kg/injection, schedule: Q01DX001 (ip), vehicle: other", "result": "0 of 6"},
      {"measurement": "survivor count", "setting": "[2]", "result": "0 of 4"}
    ]},
    {"smiles": "O=[N+]([O-])c1ccc([As](=O)(O)c2ccc([N+](=O)[O-])cc2)cc1", "values": [
      {"measurement": "survivor count", "setting": "dose: 300.0 mg/kg/injection, schedule: Q01DX001 (ip), vehicle: saline", "result": "3 of 6"}
    ]},
    {"smiles": "O=C(CCN1CC=C(c2ccccc2)CC1)c1ccc(Oc2ccccc2)cc1", "values": [
      {"measurement": "survivor count", "setting": "dose: 400.0 mg/kg/injection, schedule: Q04DX003 (ip), vehicle: saline with Tween-80", "result": "1 of 6"}
    ]},
    {"smiles": "N[P+](c1ccccc1)(c1ccccc1)c1ccccc1", "values": [
      {"measurement": "survivor count", "setting": "dose: 50.0 mg/kg/injection, schedule: Q04DX002 (ip), vehicle: Klucel (hydroxypropylcellulose) (HPC)", "result": "0 of 3"},
      {"measurement": "survivor count", "setting": "dose: 100.0 mg/kg/injection, schedule: Q04DX002 (ip), vehicle: Klucel (hydroxypropylcellulose) (HPC)", "result": "0 of 3"},
      {"measurement": "survivor count", "setting": "dose: 200.0 mg/kg/injection, schedule: Q04DX002 (ip), vehicle: Klucel (hydroxypropylcellulose) (HPC)", "result": "0 of 3"},
      {"measurement": "survivor count", "setting": "dose: 400.0 mg/kg/injection, schedule: Q04DX002 (ip), vehicle: Klucel (hydroxypropylcellulose) (HPC)", "result": "0 of 3"}
    ]},
    {"smiles": "CC(=O)Nc1ccc(/C=N/Nc2c3ccccc3nc3ccccc23)cc1", "values": [
      {"measurement": "survivor count", "setting": "[1]", "result": "2 of 4"},
      {"measurement": "survivor count", "setting": "[2]", "result": "0 of 4"}
    ]},
    {"smiles": "O=S(=O)(Cl)c1ccccc1Cl", "values": [
      {"measurement": "survivor count", "setting": "dose: 100.0 mg/kg/injection, schedule: Q01DX001 (ip), vehicle: Klucel (hydroxypropylcellulose) (HPC)", "result": "2 of 6"},
      {"measurement": "survivor count", "setting": "dose: 200.0 mg/kg/injection, schedule: Q01DX001 (ip), vehicle: Klucel (hydroxypropylcellulose) (HPC)", "result": "0 of 6"}
    ]},
    {"smiles": "CC(C)(C)OC1C2C=CC1C=C2", "note": "(centres undefined)", "values": [
      {"measurement": "survivor count", "setting": "dose: 50.0 mg/kg/injection, schedule: Q04DX003 (ip), vehicle: Klucel (hydroxypropylcellulose) (HPC)", "result": "6 of 6"},
      {"measurement": "survivor count", "setting": "[3]", "result": "6 of 6"}
    ]},
    {"smiles": "C/C=C/C(C#N)Nc1ccccc1C(N)=O", "note": "(centres undefined)", "values": [
      {"measurement": "survivor count", "setting": "dose: 150.0 mg/kg/injection, schedule: Q01DX009 (ip), vehicle: Klucel (hydroxypropylcellulose) (HPC)", "result": "0 of 3"},
      {"measurement": "survivor count", "setting": "[3]", "result": "1 of 6"},
      {"measurement": "survivor count", "setting": "dose: 225.0 mg/kg/injection, schedule: Q01DX009 (ip), vehicle: Klucel (hydroxypropylcellulose) (HPC)", "result": "0 of 3"},
      {"measurement": "survivor count", "setting": "dose: 335.0 mg/kg/injection, schedule: Q01DX009 (ip), vehicle: Klucel (hydroxypropylcellulose) (HPC)", "result": "0 of 3"},
      {"measurement": "survivor count", "setting": "[4]", "result": "0 of 6"}
    ]},
    {"smiles": "Cc1cc(Br)c2c(c1O)C13CCN(C)C(C2)C1CC(Br)C(=O)C3", "note": "(centres undefined)", "values": [
      {"measurement": "survivor count", "setting": "dose: 25.0 mg/kg/injection, schedule: Q01DX001 (ip), vehicle: saline", "result": "3 of 6"},
      {"measurement": "survivor count", "setting": "dose: 50.0 mg/kg/injection, schedule: Q01DX001 (ip), vehicle: saline", "result": "0 of 6"}
    ]},
    {"smiles": "COc1cc2ccc3c4cc5c(cc4c[n+](C)c3c2cc1OC)OCO5", "values": [
      {"measurement": "T/C", "setting": "dose: 80.0 mg/kg/injection, schedule: Q01DX009 (ip), vehicle: saline", "result": "142 % of control"}
    ]},
    {"smiles": "COc1ccc(NC(=O)N(C)N=O)cc1", "values": [
      {"measurement": "T/C", "setting": "dose: 65.0 mg/kg/injection, schedule: Q01DX Z (ip), vehicle: carboxymethylcellulose (CMC)", "result": "125 % of control"},
      {"measurement": "survivor count", "setting": "dose: 85.0 mg/kg/injection, schedule: Q01DX Z (ip), vehicle: carboxymethylcellulose (CMC)", "result": "6 of 6"},
      {"measurement": "survivor count", "setting": "dose: 150.0 mg/kg/injection, schedule: Q01DX Z (ip), vehicle: carboxymethylcellulose (CMC)", "result": "4 of 6"},
      {"measurement": "survivor count", "setting": "dose: 200.0 mg/kg/injection, schedule: Q01DX Z (ip), vehicle: carboxymethylcellulose (CMC)", "result": "0 of 6"}
    ]},
    {"smiles": "Cc1ccc(OC(=O)Nc2ccc(C(=O)O)c(O)c2)cc1", "values": [
      {"measurement": "survivor count", "setting": "dose: 400.0 mg/kg/injection, schedule: Q01DX009 (ip), vehicle: saline", "result": "1 of 6"}
    ]},
    {"smiles": "CC(=O)Nc1ccc(OC(=O)Nc2cccc3ccccc23)cc1", "values": [
      {"measurement": "survivor count", "setting": "[4]", "result": "6 of 6"}
    ]}
  ]
}
